Results are given in words; binding and its absence hold for the method and conditions named. Binding seen in cells or lysates may run through a third protein. These calls come from enrichment with a bait or labelling near it, and not all partners need be listed.
Biological target: BatR-3xFlag (P. aeruginosa PAO1) (UniProt Q9HZF9)
Test: affinity purification with mass spectrometry; co-immunoprecipitation of BatR-3xFlag (bait) with PAO1 proteins, mass spectrometry of the precipitate; protocol in S5 Data

Chains of the proteins cited; added tags and fusions are not shown. Lines headed by an entry give the natural chain unless they say otherwise; changes in a name come on top.
UniProt Q9HZF9: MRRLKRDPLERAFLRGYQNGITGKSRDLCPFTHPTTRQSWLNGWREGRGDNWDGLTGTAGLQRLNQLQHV

Row | Binder | binding
1 | Transcription antitermination protein NusB (protein, UniProt Q9HWX6 1-159) MSNQDSGNPAAKPPKGKTAARRKARSLAVQALYSWQIAGQPLHEIEAQFRTDNDFSEVDGAYFHEILHGVPRQKSELDSTFEPCLDRPLAEIDPVELAILRLSTYELRNRIDVPYKVVINEGIELAKTFGATDGHKFVNGVLDKLAPRLRAAELRGGKR | binds
2 | 50S ribosomal protein L18 (protein, UniProt Q9HWF1 1-116) MSVKKETRLRRARKARLKMRELETVRLCVYRSSQHIYAQVIAADGGKVLASASTLDKDLREGATGNIDAAKKVGQLVAERAKAAGVTQVAFDRSGFKYHGRVKALADAAREGGLEF | binds
3 | PslC (protein, UniProt Q9I1N6 1-303) MRCALVIPTRNAGAHLDRLLPALAAQRRQPDSILVVDSRSSDDTVERFRAFGARVEVIEPASFNHGGTRRWASQQVEADALIYLTQDAIPASPDSFANLLDELYAEADIGVAYGRQLPHPGAGLLGAQARRFNYPPESRSKRLADASELGIKTCFSSDSFSAYRSDALAAVGDFPEDVIGSEDAYVAARLLQAGYAVRYAASAEVYHSHDYRLLEEFRRYFDIGVFYGRERWIRAAFGGAGGEGKRYVLAEIQALRAAGALYRVPEIALRSAFKLLGYRLGQLERHLPVALKRRISMFPGYWK | binds
4 | Protein PilG (protein, UniProt P46384 1-135) MEQQSDGLKVMVIDDSKTIRRTAETLLKKVGCDVITAIDGFDALAKIADTHPNIIFVDIMMPRLDGYQTCALIKNNSAFKSTPVIMLSSKDGLFDKAKGRIVGSDQYLTKPFSKEELLGAIKAHVPSFTPVDAVS | binds
5 | Uncharacterized protein PA3046 (protein, UniProt Q9HZG2 1-114) MATNRSRRLRKKLCVDEFQELGFELNFHYKEGVDADAVNAFMLRFIDQAIEANELTYGGCDEFGFVCLARRGSVNEEQRALIEAWLKQQPELASVEVGALVDAWYPEQPVLPKL | binds
6 | GTP cyclohydrolase-2 (protein, UniProt Q9HWY1 1-205) MSVVFVAASKLPTPFGEFTMHGFLDEESGKEHVALSMGDIADGAPVLGRLHSECLTGDALFSLRCDCGFQLEGALAAIAEEGRGVLLYLRQEGRGIGLLNKIRAYELQDGGADTVEANLQLGFGADQRDYAMCQPMLAHLGVSSLRLMTNNPRKVKALESYAITVAERVPLQKGLNKHNRRYLATKAGKLGHMLGSLHQGEAETT | binds
7 | Stress response kinase A (protein, UniProt Q9I632 1-324) MSHPFDQLTPDLVLDAVESLGYLSDARVLALNSYENRVYQVGIEDGEPLIAKFYRPDRWSDAAIREEHAFSAELAECEVPVVAPLSRDGESLFAFSGFRFALFPRRGGRAPEPGNLDQLYRLGQLLGRLHAVGATRPFEHREALAVDNFGHASLATLLEGNFIPRSLLPAYESVARDLLKRLDALFAEVPYQPIRLHGDCHPGNLLCRDDVYHMVDLDDCRMGPALQDLWMMLAGERHERLAQIAELVDGYNEFHDFDPRQLPLLEGLRSLRLMHYSAWLARRWDDPAFPPSFPWFGSERYWGEQVLVLREQLAALDEEPLRLF | binds
